Data reported in patent US7390870B2, “Immune-enhancing peptides” (Posco, priority 2001, dated 2008).
Some entries share one result that the patent states for a list of compounds. No end group written: not given here.

Tested on: human monocytes
Assay: Chemotaxis assay, human monocytes (multiwell chamber)
Type: cell-based
Details: FIG. 7

Substance: MFYLPM-NH2
- maximal cellular migration-inducing activity relative to 100 nM fMLF-induced one: over 200%
